The source of these data is patent US20010038824A1 (priority 2000, published 2001).

HELM strings list residues between dots; [ac] is acetyl, [am] amide, other brackets name non-standard units.

This series can be described thus: general procedure: peptide synthesis; BOP reagent, HOBT hydrate, N,N-diisopropylethylamine. Particulars: late stage modification step.
Substance “PEPTIDE1{[3OHC16].[ThrX].[AlaX].[TyrX].[ValX].[4HypX].[ThrX].[ThrX].[3HypX].[3OHGlnX].G.[ThrX].[OrnX(Sar)]}$PEPTIDE1,PEPTIDE1,1:R1-13:R2$$$V2.0” returned a step yield of 39% yield.

The substance N(val)-Boc-IX returned a step yield of 6% yield.

Consider N(orn)-Boc-IX, for which the step yield came to 45% yield.
